Measurements reported in PMC11570498.
No constants are given. Whether binding was seen depends on the method and setting. Some entries that bind do so weakly or less than the wild type.

Target: Chlorella sorokiniana Rubisco large subunit (CsRbcL) (Chlorella sorokiniana UTEX1230 (endogenous in Chlorella cells)) (UniProt W8SUA8)
Test: cryo-EM structure; 0.5 μM CsRubisco and 16 μM α3–α4 in 200 mM sorbitol, 50 mM HEPES, 50 mM KOAc, 2 mM Mg(OAc)2, 1 mM CaCl2, pH 6.8; D4 map of the holoenzyme and C1 map after symmetry expansion; both purified

With “Chlorella sorokiniana Rubisco large subunit (CsRbcL) (from UniProt W8SUA8 1-475)” the binding was “binds”.
